PubChem BioAssay AID1224829, NIAID, 2016
Here is a random part of about 3,800 deposited reagents. 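Calls cover raised and lowered translocation; gene median uses one vendor's three siRNAs; qiagen siRNAs acted more weakly than ambion siRNAs.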 The numbers tell different reagents against one gene apart. Not all columns of the deposit are shown.

Screen: 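Follow-up of TLR4-NF-kappaB regulators using six separate siRNAs for each gene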 (follow-up of hits)
Cell system: mouse RAW264.7 G9 macrophage reporter cells
Knock-down reagent: single siRNA against mouse genes, 100 nM
Timing: 2 days of siRNA knock-down, then 40 min of LPS before fixing
Challenge: LPS (Salmonella minnesota R595) at 10 ng/ml
Read-out: 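Imaging of GFP-p65 after 40 min of LPS; nuclear over perinuclear ring intensity ratio, scaled to plate median and non-targeting control wells, given as z-score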
Scale: p65 translocation z-score: higher = more nuclear NF-kappaB p65 after LPS
Call rule: 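An siRNA is called active when the mean z-score of its two replicates is above 2 or below -2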
Calls: active = changed p65 translocation (either direction); inactive = no clear change

target	siRNA no.	siRNA vendor or control pool	p65 translocation z-score, replicate mean	p65 translocation z-score, replicate 1	p65 translocation z-score, replicate 2	activity call
Ap2m1 (adaptor-related protein complex 2, mu 1 subunit)	1	ambion single siRNA	1.8	1.61	1.99	inactive
Ap2m1 (adaptor-related protein complex 2, mu 1 subunit)	2	ambion single siRNA	-0.748	-0.965	-0.532	inactive
Ap2m1 (adaptor-related protein complex 2, mu 1 subunit)	3	ambion single siRNA	-2.45	-1.56	-3.34	active
Ap2m1 (adaptor-related protein complex 2, mu 1 subunit)	4	qiagen single siRNA	2.71	2.12	3.3	active
Ap2m1 (adaptor-related protein complex 2, mu 1 subunit)	5	qiagen single siRNA	-1.26	-1.44	-1.08	inactive
Ap2m1 (adaptor-related protein complex 2, mu 1 subunit)	6	qiagen single siRNA	-2.79	-2.8	-2.78	active
Ces2e (carboxylesterase 2E)	1	ambion single siRNA	1.94	2.6	1.28	inactive
Ces2e (carboxylesterase 2E)	2	ambion single siRNA	-0.431	0.0566	-0.919	inactive
Ces2e (carboxylesterase 2E)	3	ambion single siRNA	-2.81	-3.26	-2.37	active
Ces2e (carboxylesterase 2E)	4	qiagen single siRNA	-0.298	0.184	-0.78	inactive
Ces2e (carboxylesterase 2E)	5	qiagen single siRNA	-4.24	-4.24		active
Ces2e (carboxylesterase 2E)	6	qiagen single siRNA	-0.241	-0.241		inactive
Epo (erythropoietin)	1	ambion single siRNA	0.172	0.128	0.216	inactive
Epo (erythropoietin)	2	ambion single siRNA	-4.19	-3.72	-4.66	active
Epo (erythropoietin)	3	ambion single siRNA	-1.76	-4.61	1.1	inactive
Epo (erythropoietin)	4	qiagen single siRNA	1.35	0.844	1.87	inactive
Epo (erythropoietin)	5	qiagen single siRNA	-2.3	-2.3		active
Epo (erythropoietin)	6	qiagen single siRNA	0.542	-1.49	2.57	inactive
Rps29 (ribosomal protein S29)	1	ambion single siRNA	-0.884	-1.52	-0.25	inactive
Rps29 (ribosomal protein S29)	2	ambion single siRNA	-2.85	-1.92	-3.79	active
Rps29 (ribosomal protein S29)	3	ambion single siRNA	-0.521	0.806	-1.85	inactive
Rps29 (ribosomal protein S29)	4	qiagen single siRNA	-0.612	-0.172	-1.05	inactive
Rps29 (ribosomal protein S29)	5	qiagen single siRNA	-4.26	-4.26		active
Rps29 (ribosomal protein S29)	6	qiagen single siRNA	-2.09	-2.09		active

Reformatted: results already given
| target | siRNA no. | siRNA vendor or control pool | p65 translocation z-score, replicate mean | p65 translocation z-score, replicate 1 | p65 translocation z-score, replicate 2 | activity call |
| --- | --- | --- | --- | --- | --- | --- |
| Ces2e (carboxylesterase 2E) | 6 | qiagen single siRNA | -0.241 | -0.241 | – | inactive |
| Epo (erythropoietin) | 1 | ambion single siRNA | 0.172 | 0.128 | 0.216 | inactive |
| Epo (erythropoietin) | 2 | ambion single siRNA | -4.19 | -3.72 | -4.66 | active |
